Key:
uninfected MDCK cells = assay: MTT test on uninfected MDCK cells; details: MTT 24 or 48 H, 2-500 μM
A549 cells = assay: MTT cell viability test on A549 cells

COc1ccc2cc(C(C)C(=O)O)ccc2c1 (stereo not drawn) [Naproxen]
toxicity (MTT) (uninfected MDCK cells): No toxicity | toxicity for A549 cells (MTT) (A549 cells; 48H incubation, 1 to 500 μm): not toxic | cellular toxicity (MTT) (A549 cells; A549, MTT 48 H, 2-500 μM): No toxicity

— patent US20180028478A1, “ANTIVIRAL COMPOSITIONS DIRECTED AGAINST THE NUCLEOPROTEIN OF INFLUENZA VIRUSES” (priority 2011, published 2018)
